For this data set, the system named is myoglobin. Description: binding assay. Particulars: quantum dot probe; off-target control; purified native protein; protein details: biotinylated, immobilised on streptavidin plate; single-stranded DNA.

The exact form of at least one protein or probe is not confirmed. No signal at the amounts used counts as a negative.

Take “CAAGCAGAAGACGGCATACGAGATCATGCTTCCCCAGGGAGATGGTTTGCCGGTGGGCAGGTTTAGGGTCTGCTCGGGATTGCGGAGGAACATGCGTCGCAAACGTGTAGATCTCGGTGGTCGCCGTATCATT [P7-B1-P5 aptamer]”: the binding result was “no binding”.

The record behind these values is patent publication US20220162684.
